## Screening data, single-dose tests

Measurements from “University of Dundee, Small-Polar-MMV Screening Library” (2021), ChEMBL document CHEMBL3988442.

Values are the deposited “Percent Effect”, in %.
How 0% and 100% were set is not recorded. Most values in the screen are low, and negative values occur.
The compounds are a random part of those screened.
Two or more numbers in one place are separate tests of the same structure; such repeats can differ widely.

Mtb cholesterol medium: 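Growth of Mycobacterium tuberculosis over 4 days (cholesterol / DPPC medium with tyloxapol); the read-out is not stated. Tested at 50 µM. Direction is inferred from retests: higher values go with more growth inhibition. Of about 69,000 compounds tested this way, about 370 (0.54%) reached 50% or more in at least one test.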
Mtb glucose medium: 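Whole-cell growth test on Mycobacterium tuberculosis, read after 3 days in glucose-containing 7H9 medium; the read-out is not stated. Concentration: 50 µM. Higher reads as more growth inhibition (inferred: compounds with an IC50 in retests scored well above the rest). Of about 69,000 compounds tested this way, about 760 (1.1%) reached 50% or more in at least one test.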

compound,Mtb cholesterol medium,Mtb glucose medium
CNc1cc(C2CCCN2C(=O)CCc2ccccc2F)ccn1 (stereo not drawn),7.682%,24.2%
CCCOc1cccc(C(=O)N2CCCC(n3cncn3)C2)c1 (stereo not drawn),1.872%,1.315%
CCOC(=O)Cn1cnc2nc3n(c2c1=O)CCC3,-11.17%,-22.58%
COc1cccc2ccc(N3CCC(O)(C(=O)O)CC3)nc12,-20.04%,-28.04%
Cc1noc(NC(=O)c2cccc(Br)c2)n1,46.55%,88.85%
Cc1noc2nc(C3CCN(Cc4ccccn4)CC3)cc(C(F)F)c12,-3.04%,16.27%
CC(C)C(C(=O)N1CCCN(Cc2nccn2C)CC1)N1CCCC1 (stereo not drawn),-43.27%,-25.13%
[H][C@@]12CCCCN(Cc3ccccc3)[C@]1([H])CN(c1ncccn1)C2,0.6263%,-7.951%
O=C(O)C(F)(F)F.[H][C@]12CN(CCc3ccccc3)C[C@@]1([H])S(=O)(=O)CC[C@@H]2C(=O)N1CCCC1,-8.387%,-16.93% & -4.265%
CCC(SC)C(=O)N1CCC(n2ccnn2)CC1 (stereo not drawn),7.084%,-0.3308%
Cc1nccn1-c1ccc(=O)n(CCNC(=O)c2ccncc2)n1,1.487%,-3.767%
Cc1ccc(C(=O)NCCCNS(C)(=O)=O)c(=O)[nH]1,0.7508% & 1.69%,-4.6%
CN(C)CCN1Cc2ncn(C)c2C(COCC(=O)N(C)C)C1 (stereo not drawn),7.084%,12.4%
[H][C@@]12CN(CC3CC3)CCO[C@]1([H])CN(C(=O)c1ncccn1)C2,-4.645%,-7.416% & -7.644%
O=C(c1ccoc1)N1CCC(Nc2cccnn2)CC1,-1.943%,-12.45%
O=S(=O)(Cc1nc(C2CC2)no1)c1ccccc1F,-14.43%,0.1789% & -22.56%
Cc1ccccc1OC1(C(=O)O)CCN(C(=O)CCc2ccco2)CC1,-7.72%,-20.61%
Cc1cc(C)c(CNC(=O)NCC(O)c2cccc(F)c2)c(=O)[nH]1 (stereo not drawn),10.89%,-8.772%
CC(O)CN1CCC(CNCc2cccc(OC(F)(F)F)c2)CC1 (stereo not drawn),18.56%,34.41%
O=S(=O)(C1CC1)N1CCCn2nnc(Cn3cccc3)c2C1,-2.672%,5.711%
Cc1nn(C)c(Cl)c1C1CCCN1c1ncnc2sccc12 (stereo not drawn),11.08%,14.68%
CCO[C@@H]1CO[C@@]2(CCCN(C(=O)c3ccc(OC)c(F)c3)C2)C1,21.71%,31.83%
O=C(NCCc1ccccn1)NC1CCN(c2ccccc2)C1=O (stereo not drawn),9.526%,16.18%
O=C(O)C(F)(F)F.[H][C@]12CCC[C@@H](CN(C)C)[C@@]1([H])CN(c1nccc(C(F)(F)F)n1)C2,29.48%,16.86%
CN1CCOCC2(CCCN(C(=O)c3cnccn3)C2)C1.O=C(O)C(F)(F)F (stereo not drawn),-2.906%,-9.859%
CCOc1ccc(NC(=O)NCc2cccnc2OCC)cc1,-5.769%,7.442%
O=C1CN(C(=O)CC2C(=O)NCCN2CC2CCCCC2)CCN1 (stereo not drawn),0.7476%,-18.29% & 6.128%
O=S1(=O)NCC2(CCCN(Cc3ccccn3)C2)Oc2ncccc21 (stereo not drawn),-20.19%,-43.71%
CC[C@H](C)[C@@H](CO)NC(C)Cc1ccccc1F (stereo partly drawn),6.871%,22.83%
CC(=O)NCC(=O)N1CCN(C)c2ncccc2C1,-31.11% & -5.626%,-26.2%
c1cnc(N2CCC(c3nccn3CC3CC3)CC2)nc1,-3.019%,17.76%
Cc1ccc(NC(=O)C2CCc3ccccc3N2)cc1 (stereo not drawn),-11.12%,-19.9%
CC(C)N(CCSc1ncnc2[nH]ncc12)C(C)C,-1.475%,22.77%
CC(=O)N1CCC(Oc2cccc(C#N)c2)CC1,-9.718%,1.897% & -2.789%
O=C1OCCN1CCSc1nnnn1C1CCOCC1,-1.197%,16.87%
Cc1noc(C)c1CN(C)Cn1c(=O)n(C)c2ccccc21,-15.92%,-7.513%
O=C1COc2ccc(C(=O)NS(=O)(=O)c3cc(F)ccc3F)cc2N1,-14.93%,22.37%
COCCOc1ccccc1NC(C)C(=O)NC(=O)NC(C)(C)C (stereo not drawn),16.2%,7.301%
CCc1cc(-c2nccn2-c2ccccc2CN2CCOCC2)on1,1.078%,-34.52%
N#Cc1ccc(CN2CCN(C(=O)c3cc(C4CC4)[nH]n3)CC2)cc1,11.73%,34.05%
[H][C@@]12CN(Cc3ccoc3)CCO[C@]1([H])CN(C(=O)N1CCCC1)C2,-15.65% & -12.97%,-6.413%
Cn1nccc1C(=O)N1CCC(c2nnsc2S(C)(=O)=O)CC1,6.008% & -3.013%,-18.23%
Cc1nn(CC(C)C)c(N(C)C)c1CNCc1ccnn1C,-23.28%,3.71% & -47.22%
COc1ccccc1C(=O)N1CCOC2(CCCN(C(C)=O)C2)C1 (stereo not drawn),-3.238% & 9.51%,12.47%
CC(=O)NCCCNC(=O)N1CCN(c2cc(F)ccc2F)CC1,9.563%,15.34%
COCCCNC(=O)CN1CCCC1c1c(C)nn(C)c1Cl (stereo not drawn),-31.8%,-34.99%
Cc1cc(CN(C)C(=O)C2CCCN(C(=O)c3cccs3)C2)no1 (stereo not drawn),-17.03%,-0.7944%
Cc1nn(C)cc1C1=NS(=O)(=O)N(C)C(C(=O)Nc2ccc(Br)cc2)=C1,-14.5%,-23.53%
O=C(NC1CCS(=O)(=O)c2ccccc21)c1cccs1 (stereo not drawn),-9.131%,-37.26%

4 of the entries, repeated:

| compound | Mtb cholesterol medium | Mtb glucose medium |
|---|---|---|
| `COCCOc1ccccc1NC(C)C(=O)NC(=O)NC(C)(C)C` (stereo not drawn) | 16.2% | 7.301% |
| `CCC(SC)C(=O)N1CCC(n2ccnn2)CC1` (stereo not drawn) | 7.084% | -0.3308% |
| `O=C1CN(C(=O)CC2C(=O)NCCN2CC2CCCCC2)CCN1` (stereo not drawn) | 0.7476% | -18.29% & 6.128% |
| `Cc1noc(NC(=O)c2cccc(Br)c2)n1` | 46.55% | 88.85% |